Data source: PubChem BioAssay AID1159584 (Peter MacCallum Cancer Centre, 2016)
Aim: 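Knock-downs that harm CDH1-null cells more than parental MCF10A cells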 (primary screen). Cells: human MCF10A breast epithelial cells, parental and CDH1-null. Reagent: siRNA against human genes. Measured: 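ATP luminescence (CellTiter-Glo) viability per line relative to mean mock wells over all plates, and the ratio of CDH1-null to parental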. Scale: CDH1-null / parental viability ratio: higher = CDH1-null cells survive relatively better than parental.
The deposit covers about 18,000 reagents; below is a part drawn at random. Further read-outs or replicates are left out here. The record does not give: the amount of reagent, the time to read-out.

gene | CDH1-null / parental viability ratio
LYSMD2 | 0.75
RCAN3 | 0.77
UPF3A | 1.16
USP48 | 1.12
INIP | 0.93
CES4A | 0.9
PCDHGB4 | 1.05
CLEC9A | 0.81
KCNRG | 1.26
LCT | 0.94
COL7A1 | 1.13
TMEM105 | 1.09
ATOX1 | 0.88
B3GNT3 | 0.95
FLRT1 | 1.24
IL26 | 1.11
LIN28B | 0.93
S1PR2 | 1.25
PLEKHM1 | 1.24
SLC16A7 | 1.02
HES6 | 1.42
NUP42 | 1.11
CHMP4B | 0.76
TOM1L1 | 1.09
PLAUR | 0.79
CSRP2 | 1.44
DDX47 | 0.85
KRT40 | 1.05
DTD2 | 1.03
CTNNA3 | 1.14
AKAP8L | 1.1
KRT27 | 1.11
DNAJC27 | 0.9
LYZL2 | 0.93
OR8G5 | 0.8
FOXH1 | 1.41
SLC1A5 | 1.12
IFIH1 | 0.78
ITGA11 | 0.95
ESPL1 | 1.22
LRRC74A | 0.98
ARHGAP33 | 0.98
PHOSPHO1 | 0.79
LYPD2 | 1.14
MRS2 | 1.22
OR7D2 | 0.97
ICA1 | 1.23
HRH3 | 0.73
NBPF9 | 0.96
MORC3 | 1.04
KCNC1 | 1.19
CYP3A43 | 0.91
MSX2 | 1.01
COX6B1 | 1.16
GIT2 | 1.11
CCR7 | 1.4
PTBP3 | 0.97
FAM3C | 1.24
SPANXA1 | 1.79
PLXND1 | 0.98
PIK3CG | 0.79
CFHR1 | 0.98
FERMT2 | 0.96
PXDN | 0.94
GNAZ | 1.24
CRABP1 | 1.05
ELAVL1 | 1.04
MRAP2 | 0.97
GGH | 1.2
KBTBD11 | 1.27
PFKP | 0.89
PLCB4 | 0.98
MLANA | 1.3
ADAMTS8 | 1.04
ASCC1 | 0.94
CACNG1 | 1.09
GPATCH3 | 1.05
HCAR3 | 1.39
ADGRB2 | 0.57
ZIC1 | 1.15
TFAP2A | 1.19
UNC45A | 1.09
SCGB3A1 | 1.04
BCKDK | 0.75
TMEM179 | 1.17
OXA1L | 1
TCEAL2 | 0.76

Reformatted: results already given.
{"gene":"LIN28B","CDH1-null / parental viability ratio":0.93}
{"gene":"S1PR2","CDH1-null / parental viability ratio":1.25}
{"gene":"PLEKHM1","CDH1-null / parental viability ratio":1.24}
{"gene":"SLC16A7","CDH1-null / parental viability ratio":1.02}
{"gene":"HES6","CDH1-null / parental viability ratio":1.42}
{"gene":"NUP42","CDH1-null / parental viability ratio":1.11}
{"gene":"CHMP4B","CDH1-null / parental viability ratio":0.76}
{"gene":"TOM1L1","CDH1-null / parental viability ratio":1.09}
{"gene":"PLAUR","CDH1-null / parental viability ratio":0.79}
{"gene":"CSRP2","CDH1-null / parental viability ratio":1.44}
{"gene":"DDX47","CDH1-null / parental viability ratio":0.85}
{"gene":"KRT40","CDH1-null / parental viability ratio":1.05}
{"gene":"DTD2","CDH1-null / parental viability ratio":1.03}
{"gene":"CTNNA3","CDH1-null / parental viability ratio":1.14}
{"gene":"AKAP8L","CDH1-null / parental viability ratio":1.1}
